# Laboratory results reported in patent US9962334B2, “Ophthalmic device having therapeutic agent delivery capability and method of forming same” (Novartis AG, priority 2008, dated 2018).
# Key:
# [1] = Release of therapeutic agent from loaded acrylate lenses over 7 days (HPLC); conditions: ACRYSOFT II acrylate lens soaked 90 minutes in 3 mg/ml acetone drug solution; 0.5 ml water, 37° C., medium replaced every 24 hours; total after 7 days
# [2] = Drug loading of A1 and A2 discs with nepafenac or diclofenac sodium; conditions: 2.5 mg/mL drug solution, 4 hours soak
Compound,7 days release [1],amount of drug picked up by A1 and A2 materials [2]
COc1cc2c(c(OC)c1OC)-c1ccc(OC)c(=O)cc1[C@@H](NC(C)=O)CC2 [Colchicine],0.1 µg,
NC(=O)Cc1cccc(C(=O)c2ccccc2)c1N [Nepafenac],5.9 µg,high amount
CC(=O)Oc1ccccc1C(=O)O [Aspirin],0.0 µg,
O=C(O)Cc1ccccc1Nc1c(Cl)cccc1Cl [Diclofenac Sodium],,limited
O=C(c1ccccc1)c1ccc2n1CCC2C(=O)O (stereo not shown) [Ketorolac],0.3 µg,
O=C1O[C@H]([C@@H](O)CO)C(O)=C1O [Ascorbic Acid],0.0 µg,
